Laboratory results as given in article PMC1940015.
Residue numbers refer to the chain shown, from its start. These are yes or no findings as the source states them, for the method shown. In cells and extracts the contact can be indirect. Some results given as binding are weak or reduced against the parent protein; the word gives no strength.

The chains behind the UniProt entries cited, without tags or fusion partners.
UniProt Q66H76: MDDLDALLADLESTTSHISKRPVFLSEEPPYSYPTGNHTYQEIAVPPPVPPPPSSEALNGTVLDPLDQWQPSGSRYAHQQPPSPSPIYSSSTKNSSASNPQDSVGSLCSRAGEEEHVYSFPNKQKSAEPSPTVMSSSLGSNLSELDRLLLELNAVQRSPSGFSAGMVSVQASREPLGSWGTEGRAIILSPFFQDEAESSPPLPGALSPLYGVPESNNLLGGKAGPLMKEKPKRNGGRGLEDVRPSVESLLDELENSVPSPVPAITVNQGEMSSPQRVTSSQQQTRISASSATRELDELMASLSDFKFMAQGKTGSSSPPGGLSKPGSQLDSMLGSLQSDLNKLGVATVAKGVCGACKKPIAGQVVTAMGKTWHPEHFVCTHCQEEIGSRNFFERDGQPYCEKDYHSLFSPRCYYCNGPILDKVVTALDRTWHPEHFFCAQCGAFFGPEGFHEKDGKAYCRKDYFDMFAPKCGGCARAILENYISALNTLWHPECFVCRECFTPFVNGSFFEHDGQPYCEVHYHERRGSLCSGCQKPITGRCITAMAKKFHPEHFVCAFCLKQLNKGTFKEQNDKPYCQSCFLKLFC

Assays:
α4E983A (human) = target: T1, α4E983A (human) (UniProt P13612); assay: co-IP; 1% Triton X-100 lysates of biotin-labelled PC12 cells expressing the α4 constructs; immunoprecipitated overnight at 4°C with anti-human α4 extracellular domain antibody; beads washed with 0.5 M NaCl, 1% NP40 buffer; western blot with anti-paxillin antibody
T1 sequence (chain, biotin (cell surface molecules labelled with NHS-LC-Biotin)): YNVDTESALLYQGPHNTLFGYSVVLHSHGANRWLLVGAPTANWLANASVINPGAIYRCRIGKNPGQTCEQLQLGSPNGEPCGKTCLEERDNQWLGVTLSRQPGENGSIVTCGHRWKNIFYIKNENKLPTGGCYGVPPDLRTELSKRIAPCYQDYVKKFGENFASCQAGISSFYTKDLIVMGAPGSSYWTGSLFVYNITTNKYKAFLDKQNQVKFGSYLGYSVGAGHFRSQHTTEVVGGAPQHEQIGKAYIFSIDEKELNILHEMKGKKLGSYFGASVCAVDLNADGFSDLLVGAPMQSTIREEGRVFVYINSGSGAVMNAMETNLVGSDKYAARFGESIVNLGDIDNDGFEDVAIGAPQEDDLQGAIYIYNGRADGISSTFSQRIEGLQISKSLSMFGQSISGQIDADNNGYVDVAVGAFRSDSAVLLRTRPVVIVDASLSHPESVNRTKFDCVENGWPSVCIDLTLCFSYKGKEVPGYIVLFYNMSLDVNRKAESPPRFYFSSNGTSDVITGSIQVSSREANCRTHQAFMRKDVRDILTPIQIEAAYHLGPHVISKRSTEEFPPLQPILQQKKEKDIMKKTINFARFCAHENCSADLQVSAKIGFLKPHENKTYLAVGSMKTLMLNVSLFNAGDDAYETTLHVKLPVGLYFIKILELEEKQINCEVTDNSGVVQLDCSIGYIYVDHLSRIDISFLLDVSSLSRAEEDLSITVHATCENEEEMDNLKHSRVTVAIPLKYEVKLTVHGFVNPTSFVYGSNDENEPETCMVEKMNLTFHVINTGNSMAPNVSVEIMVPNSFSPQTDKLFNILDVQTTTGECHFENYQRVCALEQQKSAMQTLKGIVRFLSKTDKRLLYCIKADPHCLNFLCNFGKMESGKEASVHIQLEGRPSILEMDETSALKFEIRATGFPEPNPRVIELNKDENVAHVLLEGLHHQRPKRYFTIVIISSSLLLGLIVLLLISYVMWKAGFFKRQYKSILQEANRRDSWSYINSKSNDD

α4S990A (human) = target: T2, α4S990A (human) (UniProt P13612); assay: as above
T2 sequence (chain, biotin (cell surface molecules labelled with NHS-LC-Biotin)): T1 sequence (chain, biotin (cell surface molecules labelled with NHS-LC-Biotin)) with A983E, S990A

Substance: paxillin (endogenous in PC12 cells) (from UniProt Q66H76 1-586)
- binding (α4E983A (human)): binds
- binding (α4S990A (human)): binds
